Source: the supplement of paper PMC10735217
Structures can show the parent of a compound that is named as a salt. Some of the results follow. Single values are uncertain here, since repeats match poorly.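 Human kidney-derived cells stably carry a construct in which eight TEAD-binding elements drive luciferase, measured by luminescence in a drug-repurposing library screen. A hit is any compound whose signal exceeds the plate mean by more than five robust Z scores.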

Tested on: HEK293A TEAD-LUC reporter
Experiment: TEAD-luciferase reporter activity (YAP activation), robust Z score vs plate; higher = stronger YAP/TEAD activation
Settings: 24 h

SMILES	TEAD-luciferase reporter activity (compound concentration: 200 nM)	TEAD-luciferase reporter activity (compound concentration: 2 uM)	TEAD-luciferase reporter activity (compound concentration: 10 uM)
Cc1ccc2c(c1)[C@H]1CN(C)CC[C@H]1N2 [Stobadine]	inactive: -0.461	inactive: -0.549	inactive: 1.37
O=c1[nH]c(=O)n(Cl)c(=O)n1Cl	inactive: -1.47	inactive: 1.51	inactive: -0.783
CCOC(=O)C1(c2ccccc2)CCC=CC1N(C)C (stereo not drawn) [tilidine]	inactive: 1.1	inactive: -1.08	inactive: -0.544
COc1nc(C)ccc1CN1CC1C#N (stereo not drawn) [ciamexon]	inactive: 1.32	inactive: -0.423	inactive: -1.5
COc1cccc2c(C(=O)N3CCN(C)C(C)C3)cn(CC3CCCCC3)c12 (stereo not drawn)	inactive: 0.895	inactive: -2	inactive: 0.229
CCC(O)c1ccc(OCCNC(C)Cc2ccccc2)cc1 (stereo not drawn)	inactive: -0.342	inactive: -0.23	inactive: 0.865
O=c1cc(C(F)(F)F)c2cc(Br)ccc2[nH]1	inactive: 1.89	inactive: -1.5	inactive: -1.43
COC(=O)N1CCN(C(=O)Cc2ccc(Cl)c(Cl)c2)C(CN2CCCC2)C1 (stereo not drawn)	inactive: -0.952	inactive: -1.42	inactive: 1.93
FC(F)(F)c1nnc(N2CCNCC2)cc1-c1ccccc1	inactive: 2.02	inactive: 0.0905	inactive: 4.23
CCNC1=Nc2ccc(Cl)cc2C(C)(c2ccccc2)O1 [(S)-etifoxine]	inactive: -1.01	inactive: -0.919	inactive: 0.849
O=[N+]([O-])O[C@@H]1CO[C@H]2[C@@H]1OC[C@@H]2O [isosorbide mononitrate, Hassle]	inactive: 4.05	inactive: 1.12	inactive: -0.574
NC(=O)CN1CC(O)CC1=O (stereo not drawn) [oxiracetam]	inactive: -1.21	inactive: -0.203	inactive: 0.257
CC(=O)[C@H]1CCC2C3CC[C@H]4C[C@H](O)[C@@H](C)C[C@]4(C)C3CC[C@@]21C (stereo partly drawn)	inactive: -0.193	inactive: -0.198	inactive: 3.99
CC[C@@]1(O)C(=O)OCc2c1cc1n(c2=O)Cc2cc3ccccc3nc2-1 [camptothecin prodrug, Mersana]	inactive: -1.51		inactive: -1.91
CC[C@@]1(O)C(=O)OCc2c1cc1n(c2=O)Cc2cc3ccccc3nc2-1 [camptothecin prodrug]		inactive: -2.11	
CC(=O)N(O)CCCP(=O)([O-])O	inactive: -0.51	inactive: -2.26	inactive: 3.28
CC12CCC(O)CC1=CCC1C2CCC2(C)C(O)CCC12 (stereo not drawn)	inactive: -1.31	inactive: -0.375	inactive: 2.15
CCOC(OCC)P(=O)(O)CCCN	inactive: -0.601	inactive: -1.15	inactive: -0.272
O=C1c2ccccc2C(=O)N1CCCN1CC=C(c2c[nH]c3ccccc23)CC1	inactive: 0.251	inactive: -1.37	inactive: -0.154
c1cc([C@H]2CC[C@]3(CC2)OOC2(O3)C3CC4CC(C3)CC2C4)ccc1OCCN1CCOCC1 (stereo partly drawn) [Artefenomel]	inactive: 1.39		inactive: -0.0491

SMILES	TEAD-luciferase reporter activity (compound concentration: 200 nM)	TEAD-luciferase reporter activity (compound concentration: 2 uM)	TEAD-luciferase reporter activity (compound concentration: 10 uM)
CN1C2CCC1C(C(=O)O)C(OC(=O)c1ccccc1)C2 (stereo not drawn)	inactive: -0.29	inactive: 0.0318	inactive: 0.882
CC(C)(CO[N+](=O)[O-])C(=O)O	inactive: 3.71	inactive: -1.75	inactive: 0.809
FC(F)(F)c1cccc(C2CNCCO2)c1 (stereo not drawn) [Flumexadol]	inactive: -1.38	inactive: -0.733	inactive: 0.531
O=C1c2ccccc2OC=C(Cl)N1CCCCN1CC=C(c2ccccn2)CC1	inactive: 0.172	inactive: -1.03	inactive: -1.32
COc1cc2c(cn1)C1NCCC1CC2 (stereo not drawn)	inactive: 0.855	inactive: -0.0297	inactive: 3.64
CC(C)(NC(=O)c1cc2c(n(CC3CCCCC3)c1=O)CCCCCC2)C(=O)N1CC(NS(C)(=O)=O)C1	inactive: -0.854	inactive: 1.48	inactive: -1.1
CC(=O)C1CCC2C3CC[C@H]4CC(O)CCC4(C)C3[C@H](O)CC12C (stereo partly drawn)	inactive: 2.36	inactive: -0.52	inactive: -2.01
CNCC(C)c1ccccc1 (stereo not drawn)	inactive: 0.82	inactive: 0.0794	inactive: 0.428
CCOC(=O)C1(c2ccccc2)CCN(CCC(O)c2ccccc2)CC1 (stereo not drawn)	inactive: -0.982	inactive: -0.326	inactive: -1.61
Clc1ccc(Cl)c(-c2cc(Cl)c(Cl)cc2Cl)c1	inactive: 0.46	inactive: -0.298	inactive: 3.11
Cc1ccc(NC(=O)NC2N=C(c3ccccc3)c3ccccc3N(C)C2=O)c(C)c1 (stereo not drawn)	inactive: -1.3	inactive: -1.85	inactive: -1.24
NNC(=O)CN1C(=O)CN=C(c2ccccc2)c2cc(Br)ccc21 [Gidazepam]	inactive: 0.519	inactive: -0.391	inactive: -0.11
CN(C)C1CCc2[nH]c3c(F)cc(F)cc3c2C1 (stereo not drawn) [Flucindole]		inactive: -0.0561	
CN(C)C1CCc2[nH]c3c(F)cc(F)cc3c2C1 (stereo not drawn) [3-(Dimethylamino)-6,8-difluoro-1,2,3,4-tetrahydrocarbazole]	inactive: -0.299		inactive: -0.132
C#C[C@]1(O)CC[C@H]2[C@@H]3CCC4=CC(=O)CCC4=C3C=C[C@@]21CC [gestri]		inactive: 0.879	
C#C[C@]1(O)CC[C@H]2[C@@H]3CCC4=CC(=O)CCC4=C3C=C[C@@]21CC [Gestri]	inactive: -1.74		inactive: 2.38
O=C1CN=C(c2ccccc2F)c2cc(Cl)ccc2N1CC1CC1	inactive: -0.825	inactive: -2.19	inactive: 0.56
CN1C(=O)CN=C(c2ccccc2)c2cc(Cl)ccc21	inactive: 1.27		inactive: 1.28
CN1C(=O)CN=C(c2ccccc2)c2cc(Cl)ccc21 [diazepam emulsion]		inactive: -0.357	
COP(=O)(OC)C(O)C(Cl)(Cl)Cl (stereo not drawn) [metrifonate]	inactive: -1.03	inactive: -0.384	inactive: 1.21

3 neighbouring records already listed:
SMILES	TEAD-luciferase reporter activity (compound concentration: 200 nM)	TEAD-luciferase reporter activity (compound concentration: 2 uM)	TEAD-luciferase reporter activity (compound concentration: 10 uM)
CCOC(=O)C1(c2ccccc2)CCN(CCC(O)c2ccccc2)CC1 (stereo not drawn)	inactive: -0.982	inactive: -0.326	inactive: -1.61
Clc1ccc(Cl)c(-c2cc(Cl)c(Cl)cc2Cl)c1	inactive: 0.46	inactive: -0.298	inactive: 3.11
Cc1ccc(NC(=O)NC2N=C(c3ccccc3)c3ccccc3N(C)C2=O)c(C)c1 (stereo not drawn)	inactive: -1.3	inactive: -1.85	inactive: -1.24

Remaining list, next part:

SMILES	TEAD-luciferase reporter activity (compound concentration: 200 nM)	TEAD-luciferase reporter activity (compound concentration: 2 uM)	TEAD-luciferase reporter activity (compound concentration: 10 uM)
C=C(c1ccccc1OCc1cccc(Cl)c1)n1ccnc1 [croconazole]	inactive: -1.4	inactive: 0.796	active: 5.53
CSCC[C@@H](C(N)=O)N(C)C(=O)[C@H](Cc1ccccc1)NC(=O)CNC(=O)[C@@H](C)NC(=O)[C@@H](N)Cc1ccc(O)cc1 [metkephamide]	inactive: -1.45	inactive: 1.16	inactive: 0.733
C[C@]12CCC3C(CC[C@]4(O)C[C@@H](O)CC[C@]34C=O)[C@@]1(O)CC[C@@H]2C1=CC(=O)OC1 (stereo partly drawn) [Strophanthidine]	inactive: -1.41	inactive: 2.13	active: 20.8
Cc1cc2c(C(C)C)c(O)c(O)c(C=O)c2c(O)c1-c1c(C)cc2c(C(C)C)c(O)c(O)c(C=O)c2c1O		inactive: -1.05	
Cc1cc2c(C(C)C)c(O)c(O)c(C=O)c2c(O)c1-c1c(C)cc2c(C(C)C)c(O)c(O)c(C=O)c2c1O [Gossypol]	inactive: 0.527		inactive: -0.12
C[C@]12CC[C@H]3[C@@H](CCC4=C(O)C(=O)CC[C@@H]43)[C@@H]1CC[C@@H]2OC(=O)CCC1CCCC1	inactive: -0.036	inactive: -0.195	inactive: 2.42
C=CCc1ccccc1OC/C(CNC(C)C)=N/O	inactive: 0.0317	inactive: -0.622	inactive: -0.778
Oc1cc2c(cc1O)[C@H]1c3ccccc3CN[C@@H]1CC2	inactive: -1.28		inactive: 1.46
Oc1cc2c(cc1O)[C@H]1c3ccccc3CN[C@@H]1CC2 [Dihydrexidine]		inactive: 1.06	
COc1ccc2c3c1O[C@H]1[C@@H](O)C=C[C@H]4[C@@H](C2)NCC[C@@]341	inactive: -0.413	inactive: -0.541	inactive: 0.306
C#CCO[C@H]1CN2CCC1CC2 [Talsaclidine fumarate]	inactive: 0.374	inactive: -0.757	inactive: -0.295
CCCC1c2cccc3c2C(Cc2ccc(O)c(O)c2-3)N1CC (stereo not drawn)	inactive: 1.1	inactive: -1.38	inactive: -1
CCc1cc2c(ccc3cnn(C[C@H](C)N)c32)o1	inactive: 0.745	inactive: -0.732	inactive: 0.207
Clc1ccc2c(C3=CCNCC3)c[nH]c2c1	inactive: 0.561	inactive: -1.03	inactive: -2.04
CC(=O)[C@]1(O)Cc2c(O)c3c(c(O)c2[C@@H](O[C@H]2C[C@H](N4CC4)[C@H](OS(C)(=O)=O)[C@H](C)O2)C1)C(=O)c1ccccc1C3=O	inactive: -0.0928	inactive: -0.975	inactive: -1.19
COC(=O)C(N)CCCN/C(N)=N\[N+](=O)[O-] (stereo not drawn)	inactive: -1.73	inactive: -0.634	inactive: 1.19
C#C[C@]1(O)CC[C@H]2[C@@H]3CC[C@H]4Cc5nc6nc7ccccc7n6cc5C[C@]4(C)[C@H]3CC[C@@]21C	inactive: 0.997	inactive: 2	inactive: 4.27
CC(=O)OC(Cc1ccccc1)(c1ccccc1)C(C)CN1CCCC1 (stereo not drawn)	inactive: -1.32	inactive: -0.455	inactive: -1.09
CC(=O)C1CCC2C3CC[C@@H]4C[C@H](O)CC[C@]4(C)C3C(=O)C[C@]12C (stereo partly drawn) [alfaxalone, Pharmos]	inactive: -0.798	inactive: 1.33	inactive: 2.98
